“And” between values parts separate entries of the source, which are not always exact repeats. Equal values may be shown once. Where a name gives a salt, the structure may show the parent alone. Some of the results follow. Single values are uncertain here, since repeats match poorly.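 HEK293T cells were given each compound shortly before transfection with a reporter in which red mCherry is followed by the SARS-CoV-2 frameshift element and then GFP in the −1 frame, so GFP appears only after frameshifting.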
Tested on: HEK293T
Assay: percent viability (nuclei count) relative to control; higher = more viable cells
Conditions: 10 µM; 24 h

SMILES | percent viability
N[C@@H](CC(=O)N1CCn2c(nnc2C(F)(F)F)C1)Cc1cc(F)c(F)cc1F | 194%
Cc1cccc(Oc2cnc(=O)[nH]c2)c1 [tolimidone] | 233%
CC(=O)Nc1c(I)c(NC(C)=O)c(I)c(C(=O)O)c1I | 254%
CC1CCc2c(N3CCC(O)CC3)c(F)cc3c(=O)c(C(=O)O)cn1c23 (centres undefined) [nadifloxacin] | 391% and 181%
Cc1cn([C@H]2C=C[C@@H](CO)O2)c(=O)[nH]c1=O [stavudine] | 165%
CNC1(C)C2CCC(C2)C1(C)C (centres undefined) [mecamylamine] | 141% and 203% and 186%
CC(C)NCC(O)COc1ccc(CCOCC2CC2)cc1 (centres undefined) [betaxolol] | 126%
CCNC(=O)[C@@H]1CCCN1C(=O)[C@H](CCCNC(=N)N)NC(=O)[C@H](CC(C)C)NC(=O)[C@@H](COC(C)(C)C)NC(=O)[C@H](Cc1ccc(O)cc1)NC(=O)[C@H](CO)NC(=O)[C@H](Cc1c[nH]c2ccccc12)NC(=O)[C@H](Cc1cnc[nH]1)NC(=O)[C@@H]1CCC(=O)N1 [buserelin] | 142%
O=C([O-])C(O)C(O)C(O)C(O)C(O)CO.[Na+] (centres undefined) | 224%
CC(O)(P(=O)(O)O)P(=O)(O)O [etidronic acid] | 257%
NOCc1ccc(Br)c(O)c1 [brocresine] | 289%
CC[C@]12CCCN3CCc4c(n(c5ccccc45)[C@@](O)(C(=O)OC)C1)[C@@H]32 [vincamine] | 17.7%
CC[C@]1(O)C[C@H]2CN(CCc3c([nH]c4ccccc34)[C@@](C(=O)OC)(c3cc4c(cc3OC)N(C=O)[C@H]3[C@@](O)(C(=O)OC)[C@H](OC(C)=O)[C@]5(CC)C=CCN6CC[C@]43[C@@H]65)C2)C1 [Vincristine sulfate] | 24.4%
CC(=O)OCC(=O)NCCCOc1cccc(CN2CCCCC2)c1 [Roxatidine acetate·HCl] | 143%
N=C(N/N=C/c1ccc(Cl)cc1)N/N=C/c1ccc(Cl)cc1 [robenidine] | 151%
O=C1c2cccc(O)c2C(=O)c2c(O)cccc21 [dantron] | 148%
NCCS | 226%
NS(=O)(=O)c1cc(C(=O)NN2C[C@@H]3[C@H]4CC[C@H](C4)[C@@H]3C2)ccc1Cl [tripamide] | 228%
CC(=O)SC[C@@H](Cc1ccccc1)C(=O)NCC(=O)OCc1ccccc1 [ecadotril] | 213%
CCN(CC)CCCC(C)Nc1c2ccc(Cl)cc2nc2ccc(OC)cc12 (centres undefined) [mepacrine] | 170%

SMILES | percent viability
CN(C)CCN(Cc1ccccc1)c1ccccn1 | 124%
Oc1c(I)cc(Cl)c2cccnc12 [clioquinol] | 158%
CCCCCOC(=O)c1ccc(N(C)C)cc1 [padimate] | 278%
CO/N=C(\C(=O)N[C@@H]1C(=O)N2C(C(=O)O)=C(CSc3nc(=O)c(O)nn3C)CS[C@H]12)c1csc(N)n1 [Rocephin] | 175%
C/N=C(/NC#N)NCCSCc1csc(NC(=N)N)n1 [tiotidine] | 153%
COc1cccc(N(C)C(=S)Oc2ccc3c(c2)CCCC3)n1 [liranaftate] | 212%
Cc1ccc(S(=O)(=O)NC(=O)NN2CCCCCC2)cc1 [Tolazamide] | 96.7%
COc1cc(C)c(/C=C/C(C)=C/C=C/C(C)=C/C(=O)O)c(C)c1C [acitretin] | 106% and 299%
CCNC(=O)CCC/C=C\C[C@@H]1[C@@H](/C=C/[C@@H](O)CCc2ccccc2)[C@H](O)C[C@@H]1O [bimatoprost] | 301%
CN1CC(=O)N=C1NC(=O)Nc1cccc(Cl)c1 [fenobam] | 138%
CN(Cc1ccccc1)Cc1ccccc1 [dibemethine] | 205%
COc1cc2ncnc(N3CCN(C(=O)OCC(C)(C)O)CC3)c2cc1OC [hoquizil] | 133%
O=S(=O)(O)CCSSCCS(=O)(=O)O [dimesna] | 333%
O=C1CCC2CCC(=O)N12 [rolziracetam] | 162%
CC(C)C[C@@H]1NC(=O)[C@H](CCCN)NC(=O)[C@H](C(C)C)NC(=O)[C@H](Cc2ccc(O)cc2)N[C@@H](CCC(=O)O)C(=O)N[C@@H](CC(N)=O)C(=O)[C@@H](Cc2ccccc2)NC(=O)[C@H](Cc2ccccc2)NC(=O)[C@@H]2CCCN2C(=O)[C@@H](Cc2ccccc2)NC1=O [tyrothricin] | 58.7%
Cn1c2ncnc-2c(O)n(C)c1=O [choline theophyllinate] | 71.7%
CN1CCC(=C2c3ccccc3CCc3cccnc32)CC1 | 198%
CO[C@H]1O[C@H](COS(=O)(=O)O)[C@@H](O[C@@H]2O[C@@H](C(=O)O)[C@@H](O[C@H]3O[C@H](COS(=O)(=O)O)[C@@H](O[C@@H]4O[C@H](C(=O)O)[C@@H](O[C@H]5O[C@H](COS(=O)(=O)O)[C@@H](O)[C@H](O)[C@H]5NS(=O)(=O)O)[C@H](O)[C@H]4O)[C@H](OS(=O)(=O)O)[C@H]3NS(=O)(=O)O)[C@H](O)[C@H]2OS(=O)(=O)O)[C@H](O)[C@H]1NS(=O)(=O)O [Fondaparinux sodium] | 236%
O=c1[nH]sc2cc(Cl)ccc12 [ticlatone] | 236%

Already shown: entries from further up.
SMILES | percent viability
NOCc1ccc(Br)c(O)c1 [brocresine] | 289%
CC[C@]12CCCN3CCc4c(n(c5ccccc45)[C@@](O)(C(=O)OC)C1)[C@@H]32 [vincamine] | 17.7%

Reference: the supplement of paper PMC8256030
